# Reference: paper PMC5550010
# These are yes or no findings as the source states them, for the method shown. In cells and extracts the contact can be indirect. Binding can be weak; no strength is given.
# Target: Smarcc1a, the zebrafish homolog of human SMARCC1 (zebrafish (endogenous in zebrafish larvae and embryos))
# Assay: co-IP; lysates of 24 hpf zebrafish embryos injected with zebrafish bbs6, human BBS6 or human BBS6^(H84Y; A242S) mRNA; IP with SMARCC1 antibody (Abcam ab172638) overnight at 4°C, Protein A/G agarose beads; western blot probed for myc
row,Binder,binding
1,"human BBS6 expressed in zebrafish embryos (protein, UniProt Q9NPJ1 1-570) MSRLEAKKPSLCKSEPLTTERVRTTLSVLKRIVTSCYGPSGRLKQLHNGFGGYVCTTSQSSALLSHLLVTHPILKILTASIQNHVSSFSDCGLFTAILCCNLIENVQRLGLTPTTVIRLNKHLLSLCISYLKSETCGCRIPVDFSSTQILLCLVRSILTSKPACMLTRKETEHVSALILRAFLLTIPENAEGHIILGKSLIVPLKGQRVIDSTVLPGILIEMSEVQLMRLLPIKKSTALKVALFCTTLSGDTSDTGEGTVVVSYGVSLENAVLDQLLNLGRQLISDHVDLVLCQKVIHPSLKQFLNMHRIIAIDRIGVTLMEPLTKMTGTQPIGSLGSICPNSYGSVKDVCTAKFGSKHFFHLIPNEATICSLLLCNRNDTAWDELKLTCQTALHVLQLTLKEPWALLGGGCTETHLAAYIRHKTHNDPESILKDDECTQTELQLIAEAFCSALESVVGSLEHDGGEILTDMKYGHLWSVQADSPCVANWPDLLSQCGCGLYNSQEELNWSFLRSTRRPFVPQSCLPHEAVGSASNLTLDCLTAKLSGLQVAVETANLILDLSYVIEDKN",binds
2,"human BBS6^(H84Y; A242S), the McKusick-Kaufman syndrome allele, expressed in zebrafish embryos (protein, UniProt Q9NPJ1 1-570) MSRLEAKKPSLCKSEPLTTERVRTTLSVLKRIVTSCYGPSGRLKQLHNGFGGYVCTTSQSSALLSHLLVTHPILKILTASIQNYVSSFSDCGLFTAILCCNLIENVQRLGLTPTTVIRLNKHLLSLCISYLKSETCGCRIPVDFSSTQILLCLVRSILTSKPACMLTRKETEHVSALILRAFLLTIPENAEGHIILGKSLIVPLKGQRVIDSTVLPGILIEMSEVQLMRLLPIKKSTALKVSLFCTTLSGDTSDTGEGTVVVSYGVSLENAVLDQLLNLGRQLISDHVDLVLCQKVIHPSLKQFLNMHRIIAIDRIGVTLMEPLTKMTGTQPIGSLGSICPNSYGSVKDVCTAKFGSKHFFHLIPNEATICSLLLCNRNDTAWDELKLTCQTALHVLQLTLKEPWALLGGGCTETHLAAYIRHKTHNDPESILKDDECTQTELQLIAEAFCSALESVVGSLEHDGGEILTDMKYGHLWSVQADSPCVANWPDLLSQCGCGLYNSQEELNWSFLRSTRRPFVPQSCLPHEAVGSASNLTLDCLTAKLSGLQVAVETANLILDLSYVIEDKN",binds
